Source: PubChem BioAssay AID1259405 (NCATS, 2018)

Purpose: 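Knock-downs that lift recombinant protein yield in hamster ovary cells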 (primary screen)
Cell system: Chinese hamster CHO-K1 ovary cells with stable secreted eGFP expression
Knock-down reagent: single siRNA against mouse genes, 0.8 pmol siRNA per well (2 µl of 400 nM stock)
Duration: 3 days
Detection: 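Percent of the per-plate non-targeting control median for intracellular GFP per well by laser scanning cytometry and for cell viability by ATP luminescence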
Reading the numbers: GFP, % of control: higher = more GFP per well, higher productivity; viability (ATP), % of control: higher = more viable cells (more ATP)
Hit rule: 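Called active when intracellular GFP, relative to negative control, is at or above 120%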
Here is an unselected part of about 50,000 reagents. In the full data, about 4,000 (8%) got an active call. 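Mouse siRNA library applied to hamster cells; one well for each siRNA.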 Reagents against one gene are numbered here. No sequences are given here.

Dpm1 #1 scored GFP, % of control 92.7; viability (ATP), % of control 85.5; inactive.
Dpm1 #2 scored GFP, % of control 94.9; viability (ATP), % of control 51.5; inactive.
For Adamts18 #1, the values are GFP, % of control 103; viability (ATP), % of control 44.5; inactive.
Adamts18 #2 showed GFP, % of control 68.1; viability (ATP), % of control 81.2; inactive.
Adamts18 #3 gave GFP, % of control 87.1; viability (ATP), % of control 82.7; inactive.
Klrk1 #1 gave GFP, % of control 98.4; viability (ATP), % of control 70.2; inactive.
Against Klrk1 #2, the values are GFP, % of control 58.5; viability (ATP), % of control 70.9; inactive.
With knock-down of Klrk1 #3, the record shows GFP, % of control 57; viability (ATP), % of control 34.7; inactive.
With knock-down of Spopl #1, the screen gave GFP, % of control 141; viability (ATP), % of control 104; active.
Knock-down of Spopl #2 resulted in: GFP, % of control 106; viability (ATP), % of control 96.6; inactive.
Spopl #3 showed GFP, % of control 81.1; viability (ATP), % of control 87.4; inactive.
Depletion of Wnt10b #1 came out at: GFP, % of control 108; viability (ATP), % of control 115; inactive.
With knock-down of Wnt10b #2, the screen gave GFP, % of control 75.1; viability (ATP), % of control 34.2; inactive.
Against Wnt10b #3 the deposit lists GFP, % of control 52.6; viability (ATP), % of control 56.4; inactive.
For Pomgnt2 #1 the deposit lists GFP, % of control 68.9; viability (ATP), % of control 47.4; inactive.
Against Pomgnt2 #2 the deposit lists GFP, % of control 81.9; viability (ATP), % of control 94.4; inactive.
Against Pomgnt2 #3, the entry reads GFP, % of control 82; viability (ATP), % of control 39.3; inactive.

An excerpt from above, reduced to “GFP, % of control”.
Klrk1 #1: 98.4
Klrk1 #2: 58.5
Klrk1 #3: 57
